From patent publication US9820481B2, “Encapsulation of active ingredients and method of making” (Arch Chemicals, Inc., priority 2013, dated 2017) come the findings set out here.

The data set can be described thus: Color (CIE L*a*b*, gloss, ΔYE) of flexible PVC films containing zinc pyrithione. Conditions: 2000 ppm in flexible PVC film.
The mark [1] stands for this setting: pressed at 160° C., over white leneta board.

For the substance zinc pyrithione [Zinc Pyrithione-Std], the “G (gloss)” value (pressed at 160° C.) came to 26.4. Besides, under setting [1], the L came out at 88.68, the a stood at 0.24 and the b came out at 8.67. Moreover, where the note is “ΔYE with respect to white”, the Delta-YE came out at 18.12.
